Assay results taken from patent US20200331998A1.
Substitutions are numbered along the chain they refer to. Results are given in words; binding and its absence hold for the method and conditions named. Binding calls can cover weak binding; strength is not graded here.

B1: E2153.2H8.A8 (antibody, V domains shown)
VH: QVQLQQSGAELVKPGASVKVSCKAFGYTFTTYPIEWMRQNHGKSLEWIGNFHPYNDDTRYNEKFKDKAKLTVEKSSSTVYLELSRLTYDDSAVYYCTRGNDYDLYGMDYWGQGTSVTVSS
VL: DIKMTQSPSSMYASLGERVTITCKASQDINTYLTWFQQKPGKSPKTLIYRANRLVDGVPSRFSGSGSGQDYSLTISSLEYEDMGIYYCLQCDDFPLTFGAGTKLELKR
B2: E2153.1D9.B4 (antibody, V domains shown)
VH: QVQLQQSGAELVRPGTSVKVSCKASGYAFTNYLIEWIKQRPGQGLEWIGVINPGSGGINYNEKFKGKATLTSDKSSSTAYMQLSSLTSDDSAVYFCARWLDYDWFAYWGQGTLVTVSA
VL: DIKMTQFPSSMYASVGERVTITCKASQDINSYLSWFQQKPGKSPKTLIYRANRLVDGVPSRFSGSGSGQDYSLTISSLEYEDMGIYYCLQCDEFPFTFGGGTKLEIK
B3: E2153.1C4.E2 (antibody, V domains shown)
VH: B1 VH
VL: B2 VL with V15L, S31T, S34T, E93D, F96L, G100A, I106L
B4: E2153.4D7.E11 (antibody, V domains shown)
VH: B2 VH with I37V, N52T, I58S, S72A
VL: B2 VL with F7S, V15L, L89R, F96S

Biological target: CAR with an scFv derived from humanized 4G7 (h4G7.7)
Assay: flow cytometry on primary human T cells expressing the h4G7.7 CAR (row H4G7.7-R2)

Row | Binder | binding
1 | B1 | binds
2 | B2 | binds
3 | B3 | binds
4 | B4 | binds
